# About 210 (0.4%) of roughly 52,000 sequences were called active.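 How the source made its calls: active means gene whose silencing raises cell survival under the drug, median off-target-corrected z-score across its silencing RNAs 2 or more; inactive means the rest.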 Some of the results follow.
# Assay: Resistance to Poly (ADP-Ribose) Polymerase inhibitor: Gene Identification via Genome-wide siRNA Screen
# Details: mouse BRCA2 R2336H ES cells, olaparib, CellTiter-Glo viability; hits give high values
# In short: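 Genome-wide siRNA screen (3 siRNAs/gene, 20 nM) in mouse ES cells carrying hypomorphic BRCA2 R2336H; olaparib 500 nM added 48 h post-transfection, CellTiter-Glo viability 72 h later. Normalized to plate-median negative control; MAD z-scores, gene median, seed-adjusted.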
row,Sequence,z-score
1,CCUGAUAUUCAUGACCAAATT against Wasf2,inactive: -0.129
2,GCUCAUAAUUUUGACAGCUTT against Cyp51,inactive: -0.0314
3,GGUUGUGUAAAAUAGUACUTT against Hp1bp3,inactive: 0.35
4,CCAUGAAAGAGGUAAUGCATT against Mdm4,inactive: -0.694
5,CCGAACAAAGAACUGUUCATT against AI132487,inactive: -0.624
6,GGGUUUUAUUGGAAAAGGATT against Riok3,inactive: 0.523
7,CCAGAACUCACUGUUGAUUTT against Gabre,inactive: 1.08
8,GGAAAGAGCUUUUUAUUGUTT against Zfp235,inactive: 0.999
9,GCUGCACUGACAUAGGAGUTT against LOC547431,inactive: -0.112
10,CGUGUAUCGUUGUCUGAAUTT against Donson,inactive: -0.353
11,GGAAGUUUCUGAAUGCUGUTT against Klrd1,active: 2.01
12,GCGCGCACGAUGCUUCAUUTT against Tm7sf4,inactive: -1.57
13,GGACAUUGUAGGAGCCCAUTT against Kynu,inactive: -2.32
14,GCGUGGAGAACCGUUAAUCTT against Shrm,inactive: 0.183
15,AACCUCAAAUGUUCAGUCCTT against 2310002A05Rik,inactive: -0.713
16,GCUGUCACAGUUUGUGAUUTT against Gak,inactive: 0.753
17,GCAUUAAGCAAUGGCAUCATT against Cbfa2t2h,inactive: -0.0376
18,GCACCCUGAUGACUGAGUUTT against Olfr204,inactive: -0.409
19,GGUCUUGAAUGUCAAGGCUTT against Mylk,inactive: 0.599
20,GCACCGUUCAAGAAAUCGATT against 2610034N03Rik,inactive: -0.0263
21,GCAAGGUUAUCGCAUUUGGTT against Olfr1511,inactive: -0.801
22,CCAAUGCAAUGUUAGCUUUTT against Tas1r3,inactive: 0.198
23,GGGUAUCAGUGCCUUCCUGTT against Acads,inactive: 0.08

row,Sequence,z-score
1,GGAGUCCACAUGGAAAUCATT against 4930486G11Rik,inactive: 0.267
2,CCGUAGACCCGGUUUAUGATT against C130099A20Rik,inactive: -0.943
3,GGAAAAGUCCAAGUUUGAATT against Hmgb2,inactive: 0.178
4,GGACUCCAAACCUAAGUGATT against 4930517K11Rik,inactive: 1.45
5,GCUAGGAUUGUUCACAAACTT against Spdef,inactive: 0.191
6,ACUAUGGUUGGUUCAAACGTT against Acat2,inactive: -2.46
7,GGAUCUGAUAACGUGGACATT against H2-Q2,inactive: 1.43
8,CGUACCAAAUGCUAACAUUTT against 4632419K20Rik,inactive: 1.16
9,GGGCCAAGGAACCUAUUUGTT against Ltbr,inactive: -2.14
10,GGCAAUGUGCUGAUCCACUTT against 1810073N04Rik,inactive: -0.839
11,GGAAGCCAAAAAGUUUUUATT against Cyp3a44,inactive: 0.622
12,CGAGAACCCACUUUUAAAGTT against Olfr701,inactive: 0.837
13,GGUCAUUGGUAAUUUUACATT against Rsn,inactive: 0.621
14,CCAAAUCCGGGAAAAAGAGTT against MGC38735,inactive: -1.58
15,GGCCUGGAUGGAAAUUUGCTT against Fabp4,inactive: 0.492
16,CCAUUAAUCCCUGGAGCGATT against Guca1a,inactive: -1.58
17,CCAAAUGACAAAAAACCUUTT against Zfp217,inactive: 1.52
18,GCAUAUCCAAACAUGUGAUTT against Rnase11,inactive: -0.774
19,GGCACUUAAGGAAAUUGGGTT against Bloc1s1,inactive: -1.97
20,GGAGCUGCUUUCAAAGCUGTT against BC006583,inactive: -0.222
21,GGUUCUUUCCAAACAAGAGTT against Evc,inactive: 0.132
22,CGGAAAUUGACCUACAAUATT against Gtf3c5,inactive: -1.35
23,GGCUACUGAUUAAAUGCUATT against Ermap,inactive: -0.869

# 5 records picked at random from those above, as already listed:
row,Sequence,z-score
14,GCGUGGAGAACCGUUAAUCTT against Shrm,inactive: 0.183
19,GGUCUUGAAUGUCAAGGCUTT against Mylk,inactive: 0.599
4,GGACUCCAAACCUAAGUGATT against 4930517K11Rik,inactive: 1.45
7,CCAGAACUCACUGUUGAUUTT against Gabre,inactive: 1.08
3,GGUUGUGUAAAAUAGUACUTT against Hp1bp3,inactive: 0.35

# Next entries

row,Sequence,z-score
1,GGAGCUUCUUGACCUCGUGTT against Frmd4a,inactive: 0.227
2,GGAUUGAAGCAGGCAGCUUTT against Purb,inactive: 2.69
3,CCCAAGAGCAAACUAUGAATT against Sult3a1,inactive: 1.37
4,GCACAAUUUCAUACCUUGGTT against Olfr490,inactive: 0.348
5,GCCUGACUCUAGCUGUCAATT against 2010001M09Rik,inactive: -1.98
6,GCAACACGUCUUCUUUGCATT against Hadhsc,inactive: 2.17
7,CCCUUUCAUUUACUCGUUGTT against Olfr787,inactive: 0.183
8,CCACGAGUUGCUGUCGUCATT against Adam22,inactive: -1.63
9,GCUGUGAUGUUCAUUGAUATT against Oas2,inactive: -0.0111
10,GGUCCAUAUGUCUUUUUUCTT against 9430097D07Rik,inactive: -0.905
11,GGCUCGUCAGUUCUAAGUUTT against Cxcl10,inactive: -1.82
12,GCCGUUCCACUCUUGGUAATT against Ranbp6,inactive: -1
13,GGCUGUGAAUCUGAAGAGCTT against Chrna6,inactive: -0.24
14,GGACUGUCAAUACUCUUUUTT against Gpr33,inactive: -2.21
15,GGGAUGUGGAAAGAAUCCATT against Ckn1,inactive: 0.913
16,GCAGGGCUUUAUAGGUUGUTT against BC028278,inactive: 1.53
17,GGUUUUAGAGGAGUUCUCCTT against Pvrl1,inactive: 1.19
18,GGAUGAAUAAGGACAGAUUTT against 1700048E23Rik,inactive: -1.2
19,GGAGCAGCAGAAGAUCCUUTT against Olfr47,inactive: 1.92
20,GCAUAAUGCUGUCACCCUCTT against Jtv1,inactive: -0.496
21,GCUGCCGGAAAAGUGUCUATT against Lrrn3,inactive: 0.397

# — PubChem BioAssay AID1347423 (Functional Genomics Laboratory (NCATS/FGL), 2020)
